Source: US9101616B2, “Aryl substituted carboxamide derivatives as calcium or sodium channel blockers” (RaQualia Pharma Inc., priority 2009, dated 2015)
Some of these results come from one statement about several compounds together.

test system: human NaV1.3 or human NaV1.7 channels; experiment: NaV1.3 FRET or NaV1.7 FRET Assays (result not assigned to one channel); assay type: cell-based; conditions: which one not given

Row | Compound | IC50 [nM]
1 | COc1cc(C(C)(C)C)ccc1C(=O)N[C@H](C)c1ccc(OCC(F)(F)F)cn1 [Example 5, (R)-4-tert-butyl-2-methoxy-N-(1-(5-(2,2,2-trifluoroethoxy)pyridin-2-yl)ethyl)benzamide] | ≤ 1000
2 | C[C@@H](NC(=O)COc1ccc(Cl)c(C(F)(F)F)c1)c1ccc(OCC(F)(F)F)cn1 [Example 6, (R)-2-(4-chloro-3-(trifluoromethyl)phenoxy)-N-(1-(5-(2,2,2-trifluoroethoxy)pyridin-2-yl)ethyl)acetamide] | ≤ 1000
3 | C[C@@H](NC(=O)c1nc(-c2cccc(C(C)(C)C(F)(F)F)c2)cs1)c1ccc(OCC(F)(F)F)cn1 [Example 9, (R)-4-(3-(1,1,1-trifluoro-2-methylpropan-2-yl)phenyl)-N-(1-(5-(2,2,2-trifluoroethoxy)pyridin-2-yl)ethyl)thiazole-2-carboxamide] | ≤ 1000
4 | C[C@@H](NC(=O)[C@@H]1C[C@@]1(C)c1ccc(C(F)(F)F)cc1)c1ccc(OCC(F)(F)F)cn1 [Example 10, (1R,2R)-2-methyl-N-((R)-1-(5-(2,2,2-trifluoroethoxy)pyridin-2-yl)ethyl)-2-(4-(trifluoromethyl)phenyl)cyclopropanecarboxamide] | ≤ 1000
5 | C[C@@H](NC(=O)c1ccc2nc(C(C)(C)C(F)(F)F)ccc2c1)c1ccc(OCC(F)(F)F)cn1 [Example 11, (R)-2-(1,1,1-trifluoro-2-methylpropan-2-yl)-N-(1-(5-(2,2,2-trifluoroethoxy)pyridin-2-yl)ethyl)quinoline-6-carboxamide] | ≤ 1000
6 | C[C@@H](NC(=O)c1ccc(C(C)(C)C)cc1)c1ccc(OCC(F)(F)F)cn1 [Example 13, (R)-4-tert-butyl-N-(1-(5-(2,2,2-trifluoroethoxy)pyridin-2-yl)ethyl)benzamide] | ≤ 1000
7 | CC(C)c1ccc(C(=O)N[C@H](C)c2ccc(OCC(F)(F)F)cn2)cc1 [Example 14, (R)-4-isopropyl-N-(1-(5-(2,2,2-trifluoroethoxy)pyridin-2-yl)ethyl)benzamide] | ≤ 1000
8 | COc1cc(C(C)(C)C)ccc1C(=O)N[C@H](C)c1ccc(OCC(F)(F)F)nc1 [Example 15, (R)-4-tert-butyl-2-methoxy-N-(1-(6-(2,2,2-trifluoroethoxy)pyridin-3-yl)ethyl)benzamide] | ≤ 1000
9 | C[C@@H](NC(=O)COc1ccc(C(F)(F)F)cc1)c1ccc(OCC(F)(F)F)nc1 [Example 16, (R)-N-(1-(6-(2,2,2-trifluoroethoxy)pyridin-3-yl)ethyl)-2-(4-(trifluoromethyl)phenoxy)acetamide] | ≤ 1000
10 | C[C@@H](NC(=O)COc1ccc(Cl)cc1)c1ccc(OCC(F)(F)F)cn1 [Example 18, (R)-2-(4-chlorophenoxy)-N-(1-(5-(2,2,2-trifluoroethoxy)pyridin-2-yl)ethyl)acetamide] | ≤ 1000
11 | C[C@@H](NC(=O)COc1ccc(-c2ccccc2)cc1)c1ccc(OCC(F)(F)F)cn1 [Example 20, (R)-2-(biphenyl-4-yloxy)-N-(1-(5-(2,2,2-trifluoroethoxy)pyridin-2-yl)ethyl)acetamide] | ≤ 1000
12 | C[C@@H](NC(=O)COc1ccc(Oc2ccccc2)cc1)c1ccc(OCC(F)(F)F)cn1 [Example 21, (R)-2-(4-phenoxyphenoxy)-N-(1-(5-(2,2,2-trifluoroethoxy)pyridin-2-yl)ethyl)acetamide] | ≤ 1000
13 | C[C@@H](NC(=O)COc1ccccc1C(C)(C)C)c1ccc(OCC(F)(F)F)cn1 [Example 22, (R)-2-(2-tert-butylphenoxy)-N-(1-(5-(2,2,2-trifluoroethoxy)pyridin-2-yl)ethyl)acetamide] | ≤ 1000
14 | C[C@@H](NC(=O)COc1ccccc1C(F)(F)F)c1ccc(OCC(F)(F)F)cn1 [Example 23, (R)-N-(1-(5-(2,2,2-trifluoroethoxy)pyridin-2-yl)ethyl)-2-(2-(trifluoromethyl)phenoxy)acetamide] | ≤ 1000
15 | C[C@@H](NC(=O)COc1ccc(Br)cc1)c1ccc(OCC(F)(F)F)cn1 [Example 28, (R)-2-(4-bromophenoxy)-N-(1-(5-(2,2,2-trifluoroethoxy)pyridin-2-yl)ethyl)acetamide] | ≤ 1000
16 | C[C@@H](NC(=O)COc1ccc(C2CC2)cc1)c1ccc(OCC(F)(F)F)cn1 [Example 29, (R)-2-(4-cyclopropylphenoxy)-N-(1-(5-(2,2,2-trifluoroethoxy)pyridin-2-yl)ethyl)acetamide] | ≤ 1000
17 | Cc1oc(C(C)(C)C)cc1C(=O)N[C@H](C)c1ccc(OCC(F)(F)F)cn1 [Example 32, (R)-5-butyl-butyl-2-methyl-N-(1-(5-(2,2,2-trifluoroethoxy)pyridin-2-yl)ethyl)furan-3-carboxamide] | ≤ 1000
18 | C[C@@H](NC(=O)c1cc(-c2ccccc2)oc1C(F)(F)F)c1ccc(OCC(F)(F)F)cn1 [Example 36, (R)-5-phenyl-N-(1-(5-(2,2,2-trifluoroethoxy)pyridin-2-yl)ethyl)-2-(trifluoromethyl)furan-3-carboxamide] | ≤ 1000
19 | Cc1oc(-c2ccccc2)cc1C(=O)N[C@H](C)c1ccc(OCC(F)(F)F)cn1 [Example 37, (R)-2-methyl-5-phenyl-N-(1-(5-(2,2,2-trifluoroethoxy)pyridin-2-yl)ethyl)furan-3-carboxamide] | ≤ 1000

Row | Compound | IC50 [nM]
20 | C[C@@H](NC(=O)c1c2ccc(C(F)(F)F)cc2nn1C)c1ccc(OCC(F)(F)F)cn1 [Example 41, (R)-2-methyl-N-(1-(5-(2,2,2-trifluoroethoxy)pyridin-2-yl)ethyl)-6-(trifluoromethyl)-2H-indazole-3-carboxamide] | ≤ 1000
21 | C[C@@H](NC(=O)c1nn(C)c2cc(C(F)(F)F)ccc12)c1ccc(OCC(F)(F)F)cn1 [Example 42, (R)-1-methyl-N-(1-(5-(2,2,2-trifluoroethoxy)pyridin-2-yl)ethyl)-6-(trifluoromethyl)-1H-indazole-3-carboxamide] | ≤ 1000
22 | C[C@@H](NC(=O)c1cc2cc(Cl)ccc2[nH]1)c1ccc(OCC(F)(F)F)cn1 [Example 44, (R)-5-chloro-N-(1-(5-(2,2,2-trifluoroethoxy)pyridin-2-yl)ethyl)-1H-indole-2-carboxamide] | ≤ 1000
23 | COc1ccc2[nH]c(C(=O)N[C@H](C)c3ccc(OCC(F)(F)F)cn3)cc2c1 [Example 45, (R)-5-methoxy-N-(1-(5-(2,2,2-trifluoroethoxy)pyridin-2-yl)ethyl)-1H-indole-2-carboxamide] | ≤ 1000
24 | C[C@@H](NC(=O)c1cc2ccc(F)cc2[nH]1)c1ccc(OCC(F)(F)F)cn1 [Example 48, (R)-6-fluoro-N-(1-(5-(2,2,2-trifluoroethoxy)pyridin-2-yl)ethyl)-1H-indole-2-carboxamide] | ≤ 1000
25 | Cc1ccc2[nH]c(C(=O)N[C@H](C)c3ccc(OCC(F)(F)F)cn3)cc2c1 [Example 51] | ≤ 1000
26 | C[C@@H](NC(=O)c1cc2cc(C(F)(F)F)ccc2n1C)c1ccc(OCC(F)(F)F)cn1 [Example 52, (R)-1-methyl-N-(1-(5-(2,2,2-trifluoroethoxy)pyridin-2-yl)ethyl)-5-(trifluoromethyl)-1H-indole-2-carboxamide] | ≤ 1000
27 | C[C@@H](NC(=O)c1cc2cc(C(F)(F)F)ccc2[nH]1)c1ccc(OCC(F)(F)F)cn1 [Example 53, (R)-N-(1-(5-(2,2,2-trifluoroethoxy)pyridin-2-yl)ethyl)-5-(trifluoromethyl)-1H-indole-2-carboxamide] | ≤ 1000
28 | C[C@@H](NC(=O)c1cn(C)c2cc(C(F)(F)F)ccc12)c1ccc(OCC(F)(F)F)cn1 [Example 54, (R)-1-methyl-N-(1-(5-(2,2,2-trifluoroethoxy)pyridin-2-yl)ethyl)-6-(trifluoromethyl)-1H-indole-3-carboxamide] | ≤ 1000
29 | C[C@@H](NC(=O)c1n[nH]c2cc(C(F)(F)F)ccc12)c1ccc(OCC(F)(F)F)cn1 [Example 56, (R)-N-(1-(5-(2,2,2-trifluoroethoxy)pyridin-2-yl)ethyl)-6-(trifluoromethyl)-1H-indazole-3-carboxamide] | ≤ 1000
30 | C[C@@H](NC(=O)CCCc1c[nH]c2ccccc12)c1ccc(OCC(F)(F)F)cn1 [Example 57, (R)-4-(1H-indol-3-yl)-N-(1-(5-(2,2,2-trifluoroethoxy)pyridin-2-yl)ethyl)butanamide] | ≤ 1000
31 | C[C@@H](NC(=O)COc1ccc(C(F)(F)F)cc1)c1ccc(OCC2CC2)cn1 [Example 59, (R)-N-(1-(5-(cyclopropylmethoxy)pyridin-2-yl)ethyl)-2-(4-(trifluoro-methyl)phenoxy)acetamide] | ≤ 1000
32 | C[C@@H](NC(=O)COc1ccc(C(F)(F)F)cc1)c1ccc(OCc2ccccc2)cn1 [Example 63, (R)-N-(1-(5-(benzyloxy)pyridin-2-yl)ethyl)-2-(4-(trifluoromethyl)phenoxy)acetamide] | ≤ 1000
33 | C[C@@H](NC(=O)CCc1c[nH]c2ccccc12)c1ccc(OCc2ccccc2)cn1 [Example 64, (R)-N-(1-(5-(benzyloxy)pyridin-2-yl)ethyl)-3-(1H-indol-3-yl)propanamide] | ≤ 1000
34 | C[C@@H](NC(=O)c1cc2cc(F)ccc2[nH]1)c1ccc(OCc2ccccc2)cn1 [Example 65, (R)-N-(1-(5-(benzyloxy)pyridin-2-yl)ethyl)-5-fluoro-1H-indole-2-carboxamide] | ≤ 1000
35 | C[C@@H](NC(=O)C1CC1c1ccc(C(C)(C)C)cc1)c1ccc(OCc2ccccc2)cn1 (stereo partly drawn) [Example 66, trans-N-((R)-1-(5-(benzyloxy)pyridin-2-yl)ethyl)-2-(4-tert-butylphenyl) cyclopropanecarboxamide] | ≤ 1000
36 | C[C@@H](NC(=O)/C=C/c1ccc(C(F)(F)F)cc1)c1ccc(OCC(F)(F)F)cn1 [Example 67, (R,E)-N-(1-(5-(2,2,2-trifluoroethoxy)pyridin-2-yl)ethyl)-3-(4-(trifluoromethyl)phenyl)acrylamide] | ≤ 1000
37 | C[C@@H](NC(=O)/C=C/c1ccc(C(F)(F)F)cc1)c1ccc(OCC2CC2)cn1 [Example 68, (R,E)-N-(1-(5-(cyclopropylmethoxy)pyridin-2-yl)ethyl)-3-(4-(trifluoromethyl)phenyl)acrylamide] | ≤ 1000
38 | C[C@@H](NC(=O)/C=C/c1ccc(C(F)(F)F)cc1)c1ccc(OCc2ccccc2)cn1 [Example 69, (R,E)-N-(1-(5-(benzyloxy)pyridin-2-yl)ethyl)-3-(4-(trifluoromethyl)phenyl)acrylamide] | ≤ 1000
